Data as given in PubChem BioAssay AID463193 (University of Pittsburgh Molecular Library Screening Center, 2010).
The other results are listed elsewhere or left out.

Experiment: GFP-LC3 puncta formation changes – imaging, high-content, MEF GFP-LC3, primary screen (AID 463193);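 note: cell loss after 18 h compound exposure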
Settings: autophagy, measured here: cell loss, nuclei count, at 10 µM

For `CN(C)CCOC(=O)C(O)(c1ccccc1)C1CCCCC1` (stereo not drawn), which toxicity is on record?
The toxicity was -1.25%.

Which toxicity does the source give for `COc1ccc(NP(C)(=O)Oc2ccccc2OC)cc1` (stereo not drawn) here?
The toxicity was 19.3%.

Which toxicity does the source give for `COC(=O)c1cc2c(s1)N=C(c1ccccc1)N(C)P2(=O)N1CCOCC1` (stereo not drawn) here?
The toxicity was 9.27%.

Which toxicity does the source give for `Cc1ccc(OP(=O)(Nc2ccccn2)Oc2ccc(C)cc2)cc1` here?
The toxicity was 6.77%.

For `CC(=O)NC(SC(=S)N(CC(C)C)CC(C)C)C(Cl)(Cl)Cl` (stereo not drawn), which toxicity is on record?
Its toxicity is 0.994%.

Which toxicity does the source give for `CCN(CC)CCCOC(=O)C(O)(c1ccccc1)C1CCCCC1` (stereo not drawn) here?
The toxicity was -1.3%.

Which toxicity does the source give for `CCC(=O)N1C2C3N(C(=O)CC)C1C1N(C(=O)CC)C(C(N1C(=O)CC)N3C(=O)CC)N2C(=O)CC` here?
The toxicity was 2%.

Which toxicity does the source give for `CP(=O)(Nc1ccccc1)Oc1ccc(F)cc1` (stereo not drawn) here?
Its toxicity is 1.81%.

With `O=c1c2cc([N+](=O)[O-])ccc2[nH]c2c([N+](=O)[O-])cc([N+](=O)[O-])cc12` as the compound, how does the toxicity read?
Its toxicity is 49.3%.

For `CCNC(=S)/N=C(\N)N[N+](=O)[O-]`, which toxicity is on record?
The toxicity was 16.4%.

With `O=C(NC1CCS(=O)(=O)C1)NP(=S)(Oc1ccccc1)Oc1ccccc1` (stereo not drawn) as the compound, how does the toxicity read?
The toxicity was 19.2%.

For `c1ccc(-c2nn[nH]n2)c(-c2nn[nH]n2)c1`, which toxicity is on record?
The toxicity was -3.42%.

For `CCOC(=O)NC(Sc1ccccc1)C(Cl)(Cl)Cl` (stereo not drawn), which toxicity is on record?
The toxicity was -32%.

With `CCOC(=O)c1ccc(NP(C)(=O)Oc2ccc(F)cc2)cc1` (stereo not drawn) as the compound, how does the toxicity read?
Its toxicity is 6.75%.

Which toxicity does the source give for `COc1ccc(OP(C)(=O)Nc2ccc(SC(F)(F)F)cc2)cc1` (stereo not drawn) here?
Its toxicity is -1.88%.

With `O=C(OCCN1CCN(CCOCc2ccccc2)CC1)C(O)(c1ccccc1)c1ccccc1` as the compound, how does the toxicity read?
The toxicity was -7.66%.

With `CC(=O)Nc1ccc(Oc2c([N+](=O)[O-])cc([N+](=O)[O-])cc2[N+](=O)[O-])cc1` as the compound, how does the toxicity read?
The toxicity was -3.08%.

Which toxicity does the source give for `O=P1(Nc2nc3ccc(Cl)cc3s2)COc2ccccc2O1` (stereo not drawn) here?
Its toxicity is 5.47%.

With `CCOc1ccc(C2=NCC(CBr)S2)cc1` (stereo not drawn) as the compound, how does the toxicity read?
The toxicity was 1.47%.

With `CP(=O)(Nc1ccccc1F)Oc1ccccc1` (stereo not drawn) as the compound, how does the toxicity read?
The toxicity was -5.92%.

With `CC(C)(C)C(=O)NC(Sc1ccccc1)C(Cl)(Cl)Cl` (stereo not drawn) as the compound, how does the toxicity read?
Its toxicity is 24.2%.

For `CC(C)c1ccc(OP(C)(=O)Nc2ccc(SC(F)(F)F)cc2)cc1` (stereo not drawn), which toxicity is on record?
The toxicity was 3.36%.

With `Cc1ccc(C)c(NP(C)(=O)Oc2ccccc2)c1` (stereo not drawn) as the compound, how does the toxicity read?
Its toxicity is -7.67%.

For `Cc1cc(C)cc(OP(C)(=O)Nc2ccccn2)c1` (stereo not drawn), which toxicity is on record?
Its toxicity is -3.52%.

Which toxicity does the source give for `Cc1ccc(NCCc2c([N+](=O)[O-])cc([N+](=O)[O-])cc2[N+](=O)[O-])cc1` here?
The toxicity was 2.57%.

For `CCOP(=O)(Nc1cccc2ccccc12)OCC`, which toxicity is on record?
The toxicity was 10.6%.

Which toxicity does the source give for `COc1cc(C(=O)NCC2(N3CCOCC3)CCCCC2)cc(Cl)c1OC(C)C` here?
The toxicity was 3.35%.

Which toxicity does the source give for `CCOC(=O)c1ccc(NP(C)(=O)Oc2cc(C)cc(C)c2)cc1` (stereo not drawn) here?
The toxicity was 5.05%.

With `Cc1cccc(OCC(=O)OC2CN3CCC2CC3)c1` (stereo not drawn) as the compound, how does the toxicity read?
The toxicity was -9.48%.

For `Cc1cc(C)cc(OP(C)(=O)Nc2ccc(C)cc2C)c1` (stereo not drawn), which toxicity is on record?
The toxicity was 3.14%.

Which toxicity does the source give for `O=[N+]([O-])c1ccc2c(c1)nnn2O` here?
The toxicity was -38.1%.

With `CC1=NCCc2c1[nH]c1ccccc21.O=[N+]([O-])c1cc([N+](=O)[O-])c(O)c([N+](=O)[O-])c1` as the compound, how does the toxicity read?
Its toxicity is 1.31%.

With `CCOP1(=S)c2c(C)nn(CCC#N)c2N=C(c2ccc(F)cc2)N1C` (stereo not drawn) as the compound, how does the toxicity read?
Its toxicity is -8.01%.

For `CCOP1(=S)c2c(C)nn(CCC#N)c2N=C(c2ccccc2F)N1C` (stereo not drawn), which toxicity is on record?
Its toxicity is -1.79%.

With `O=P(Nc1nccs1)(Oc1ccccc1)Oc1ccccc1` as the compound, how does the toxicity read?
The toxicity was 9.41%.

For `O=P(Nc1nccs1)(c1ccccc1)c1nc2ccccc2s1` (stereo not drawn), which toxicity is on record?
Its toxicity is 11.2%.

With `COc1ccccc1OP(C)(=O)Nc1c(C)cccc1C` (stereo not drawn) as the compound, how does the toxicity read?
The toxicity was 0.0844%.

Which toxicity does the source give for `CN1CCCCC1COC(=O)C1(O)c2ccccc2CCc2ccccc21` (stereo not drawn) here?
Its toxicity is 8.72%.

For `O=P1(Nc2ncccn2)COc2ccccc2OC1`, which toxicity is on record?
Its toxicity is -34.9%.

With `Cc1ccc(OCC(=O)OC2CN3CCC2CC3)cc1` (stereo not drawn) as the compound, how does the toxicity read?
The toxicity was 3.37%.

Which toxicity does the source give for `O=P1(Nc2ccc(Br)cn2)COc2ccccc2OC1` here?
Its toxicity is -5.9%.

Which toxicity does the source give for `CCCOc1ccc(NP(C)(=O)Oc2ccc(Cl)cc2)cc1` (stereo not drawn) here?
Its toxicity is -17.9%.

With `CP(=O)(Nc1ccc(SC(F)(F)F)cc1)Oc1ccccc1` (stereo not drawn) as the compound, how does the toxicity read?
The toxicity was 2.01%.

For `COc1cc(C2NCCC3(OCCO3)C2(C)C)cc(OC)c1OC.O=[N+]([O-])c1cc([N+](=O)[O-])c(O)c([N+](=O)[O-])c1` (stereo not drawn), which toxicity is on record?
Its toxicity is 1.21%.

For `Cc1nn(-c2ccccc2)c2c1P(=O)(N1CCOCC1)N(C)C(c1ccccc1)=N2` (stereo not drawn), which toxicity is on record?
Its toxicity is 4.36%.

With `CC1CCC(C(C)C)C(OP(=O)(Nc2ccccn2)c2ccccc2)C1` (stereo not drawn) as the compound, how does the toxicity read?
Its toxicity is -11.9%.

For `CN(C)C1(CNC(=O)c2ccc(S(C)(=O)=O)cc2)CCCCC1`, which toxicity is on record?
The toxicity was 11.6%.

For `Cc1nc2ccc3ccccc3c2s1.O=[N+]([O-])c1cc([N+](=O)[O-])c(O)c([N+](=O)[O-])c1`, which toxicity is on record?
Its toxicity is -17.6%.

With `CC1(CBr)Cn2c(nc3ccccc3c2=O)S1` (stereo not drawn) as the compound, how does the toxicity read?
Its toxicity is -9.72%.

Which toxicity does the source give for `CC(C)/C=N\N=C(\N)N[N+](=O)[O-]` here?
Its toxicity is -22.4%.

Which toxicity does the source give for `O=P1(Nc2ccccn2)COc2ccccc2OC1` here?
Its toxicity is 21.2%.

For `O=[N+]([O-])c1cc([N+](=O)[O-])c(-n2nnc3ccccc32)c([N+](=O)[O-])c1`, which toxicity is on record?
The toxicity was 0.971%.

For `Clc1n[nH]nc1-c1nn[nH][15n]1`, which toxicity is on record?
Its toxicity is 18.5%.

With `CCOC(=O)c1ccc(NP(C)(=O)Oc2ccc(OC)cc2)cc1` (stereo not drawn) as the compound, how does the toxicity read?
Its toxicity is 9.48%.

For `CCOP(C)(=S)SCC(=O)NC(C)C(=O)O` (stereo not drawn), which toxicity is on record?
The toxicity was 7.41%.

For `CP(=O)(Nc1ccccn1)Oc1ccc(Cl)cc1` (stereo not drawn), which toxicity is on record?
The toxicity was 25.5%.

Which toxicity does the source give for `CCC(C)N(CC(C)C)C(=S)SC(NC(C)=O)C(Cl)(Cl)Cl` (stereo not drawn) here?
The toxicity was 4.59%.

For `COP1(=S)c2c(C)nn(CCC#N)c2N=C(c2ccc(F)cc2)N1C` (stereo not drawn), which toxicity is on record?
Its toxicity is -2.2%.
